The values below come from paper PMC10163288.

The term apparent Kd denotes a dissociation constant that holds for the conditions of the assay.

The labels stand for the following.
B1: il2ra_site1_2b5i_normal_mot_HHH_b2_06044_000000134_0001_1_20_H_._HHH_b2_07763_af2_0001_0000300031_0000001_1_af2pred_dldesign_0_af2pred (protein)
chain: SSSSSEKEEKVYDLYNKALKLFKEGKKEEAKELLEEALKLAEELGSEKIAAELKRLLELLSSSSS
B2: il2ra_site1_3nfp_normal_mot_HHH_b1_05523_000000027_0001_1_19_H_._HHH_b2_00888_af2_0001_0000100003_0000001_0 (protein)
chain: SSSTDETERLLREVYEALKEAEERGDEELLKEILEEAERLAEELNDENLVRAIRFLLRALESSSS
B3: il2ra_site1_1z92_sap_12_mot_HHH_b2_03658_000000138_0001_39_56_H_._HHH_b2_00767_0001_0000900047_0000001_0_0001_af2pred_0001_af2pred (protein)
chain: SLLEELEELLEKLNTPVAKSLIRLLRFALEKGDADPEDILKDLLHAARALNDPEVQEVIEEILRK
B4: il2ra_site1_2b5i_normal_mot_HHH_b1_02271_000000068_0001_1_16_H_._HHH_b2_07355_af2_0001_0000100001_0000001_0_af2pred_dldesign_0_af2pred (protein)
chain: SSSSSSRRELLEELNKLYKELGEKGHDEAMDEVDELYRRALLENDPRLLEEAIKLAKEVLSSSSS
B5: il2ra_site1_3nfp_normal_mot_HHH_b1_01159_af2_000000075_0001_1_20_H_._HHH_b2_02821_0001_0000200006_0000001_0_af2pred_0001_af2pred (protein)
chain: SSSSDEREELRRLLEEVAEAAREGNEEELERLLEEALKLAQENNDKSARRFLESLLKQVSSSSSS
B6: il2ra_site2_2erj_sap_22_mot_HHH_b2_08311_000000155_0001_42_56_H_._HHH_b1_06235_af2_0001_0000100002_0000001_0_0001 (protein)
chain: SSSSSTSVELALEMAEELAERGNKASLEFALRYLELNRKQTNTDEVREAYRIVEELLEELSSSSS
B7: il2ra_site1_2b5i_sap_14_mot_HHH_b1_01804_af2_000000230_0001_22_38_H_._2fe55654ba661275baf09010e83dfa6f_0001_1_0001_0000700061_0000001_0_0001_af2pred_dldesign_0_ … (protein)
chain: SSSSSPEREKAEELIEKAKELYEAGKRREALKTLEEAYKIAAAAEDDELLDRIEELAKKISSSSS
B8: il2ra_site1_2b5i_normal_mot_HHH_b1_06428_000000224_0001_1_17_H_._HHH_b2_02396_0001_0000400030_0000001_0_af2pred_dldesign_0_af2pred (protein)
chain: SSSSSSSSSRALIAALEEARRAGDREAARELAERLLEEAKKRNSKNLIKLAEQALEELSSSSSSS
B9: il2ra_site2_3nfp_sap_27_mot_HHH_b2_08086_000000129_0001_21_37_H_._HHH_b1_02974_0001_0000200015_0000001_1_0001 (protein)
chain: SSSSSSDELEELQREIERAEEEGDRNEVAQLLLELTELAAENNDEEAAEFVLEVYAELRSSSSSS
B10: il2ra_site2_2erj_sap_15_mot_HHH_b2_08311_000000155_0001_42_56_H_._HHH_b2_07560_0001_0000300016_0000001_0_0001 (protein)
chain: SPEYEEILREAEEIVEEALKKNDEEKLLEAASLVIEAARKFLDDEEAFKRIREVFTRIAREREKS
B11: il2ra_site2_3nfp_normal_mot_HHH_b1_00660_af2_000000199_0001_40_57_H_._HHH_b1_06222_0001_0000100003_0000001_0 (protein)
chain: SSSSDKEEERLEELLKELEKAVREGDEELVRRIAAEVLHLAFEANDHEVFARIAELLLEFLSSSS
B12: il2ra_site2_3nfp_sap_11_mot_HHH_b1_00882_af2_000000293_0001_1_18_H_._HHH_b1_01194_af2_0001_0000300012_0000001_0_0001 (protein)
chain: SSSSSSSLYELLQEAVEAAKNGNPEEAKEILEQALEEAREAGDEEAEHFIEWFIKAVRSSSSSSS
B13: il2ra_site1_1z92_normal_mot_HHH_b1_03515_000000289_0001_1_19_H_._HHH_b1_04203_af2_0001_0000100008_0000001_0 (protein)
chain: SSSSSRLERSLKIAVRVAVRVAGLSEEEQEELEELAEELARRGIDALEAIKILDRRAAELDSSSS
B14: il2ra_site1_3nfp_normal_mot_HHH_b2_02053_000000240_0001_1_20_H_._8b3018496bece20695a4731cc719293d_0001_1_af2_0001_0000300015_0000001_0_af2pred_0001_af2pred_1_sw … (protein)
chain: GPRAAKRLVRLALEENSPKALRRILEDAERTLGDPEEAEELLSRLIAEVLKVPPEEARKIVEEVK
B15: il2ra_site2_3nfp_sap_15_mot_HHH_b1_04032_000000208_0001_43_56_H_._HHH_b1_03115_af2_0001_0000200007_0000001_0_0001 (protein)
chain: SSSSSDEREFERAVKSALEFAKQIEDEELRRSALEWAEAVAIMGNNPELQELVEKVKEELSSSSS
B16: il2ra_site2_3nfp_normal_mot_HHH_b2_02437_000000052_0001_42_56_H_._HHH_b1_03056_0001_0000100006_0000001_0_af2pred_0001_af2pred (protein)
chain: SSSSSSSEEEEQIEELLERAEHTEDEFRRFALLADALFLALKARDPELERRVREVAAKLSSSSSS
B17: il2ra_site1_3nfp_sap_14_mot_0eddeacbb14b769e73e254714f31e2f9_0001_af2_000000052_0001_37_51_H_._HHH_b2_07712_af2_0001_0000100003_0000001_0_0001 (protein)
chain: DEEVEELIEELRKRDLQLAILLKIVVEAIKRIGNPEAEELLREAIELIKEGNPEEAKRVLREAVK
B18: il2ra_site1_3nfp_normal_mot_HHH_b1_00630_af2_000000193_0001_42_55_H_._HHH_b2_03971_0001_0000200010_0000001_0 (protein)
chain: SSSSTEELHHLAKLVHEAYKALSEGNEEEVRELLEEARRLAEELNDKVARRLLEEIEKRLSSSSS
B19: il2ra_site2_3nfp_sap_15_mot_HHH_b2_04230_000000235_0001_39_52_H_._ems_p1-15H-GBL-16H-GABBL-16H_0382_0001_0001_0001_0001_0000300021_0000001_0_0001_af2pred_0001_a … (protein)
chain: SSSSSDREFRHIVESALRFAKLSEDEELRRIALDFARAVAQMGNDPELEREVEEVEEELSSSSSS

The other results are listed elsewhere or left out.

In this test the target is il2ra, P01589. The test can be described thus: yeast display titration.
Consider B1, for which the “apparent Kd” value is “inactive: no binding seen”.

For B2, the “apparent Kd” value is “inactive: no binding seen”.

B3: the “apparent Kd” value is “inactive: no binding seen”.

Consider B4, for which the “apparent Kd” value is “inactive: no binding seen”.

Turning to B5, the “apparent Kd” value was “inactive: no binding seen”.

On to B6, for which the apparent Kd was inactive: > 2260 nM.

For the molecule B7, the “apparent Kd” value was “inactive: no binding seen”.

For the molecule B8, the “apparent Kd” value was “inactive: no binding seen”.

Consider B9, for which the “apparent Kd” value was “inactive: no binding seen”.

B10: the “apparent Kd” value is “inactive: no binding seen”.

Regarding B11, the “apparent Kd” value is “inactive: no binding seen”.

For the molecule B12, the “apparent Kd” value is “inactive: no binding seen”.

Consider B13, for which the “apparent Kd” value was “inactive: no binding seen”.

Take B14: the apparent Kd is inactive: > 424 nM.

As for B15, the “apparent Kd” value was “inactive: no binding seen”.

As for B16, the “apparent Kd” value is “inactive: no binding seen”.

Consider B17, for which the “apparent Kd” value is “inactive: no binding seen”.

For the molecule B18, the “apparent Kd” value was “inactive: no binding seen”.

With B19, the “apparent Kd” value is “inactive: no binding seen”.
